This is an account of results in publication PMC7494903.

Sequences of proteins named here, by UniProt entry; tags and fusion partners are left off.
UniProt P67775: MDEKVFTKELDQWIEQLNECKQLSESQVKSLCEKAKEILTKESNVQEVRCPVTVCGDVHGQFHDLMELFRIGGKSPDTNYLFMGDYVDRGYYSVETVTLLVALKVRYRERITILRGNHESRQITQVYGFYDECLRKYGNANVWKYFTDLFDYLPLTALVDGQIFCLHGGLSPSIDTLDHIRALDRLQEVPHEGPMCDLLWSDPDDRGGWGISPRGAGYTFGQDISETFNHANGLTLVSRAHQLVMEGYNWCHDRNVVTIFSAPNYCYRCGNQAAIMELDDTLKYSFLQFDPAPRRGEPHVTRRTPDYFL
UniProt O43524: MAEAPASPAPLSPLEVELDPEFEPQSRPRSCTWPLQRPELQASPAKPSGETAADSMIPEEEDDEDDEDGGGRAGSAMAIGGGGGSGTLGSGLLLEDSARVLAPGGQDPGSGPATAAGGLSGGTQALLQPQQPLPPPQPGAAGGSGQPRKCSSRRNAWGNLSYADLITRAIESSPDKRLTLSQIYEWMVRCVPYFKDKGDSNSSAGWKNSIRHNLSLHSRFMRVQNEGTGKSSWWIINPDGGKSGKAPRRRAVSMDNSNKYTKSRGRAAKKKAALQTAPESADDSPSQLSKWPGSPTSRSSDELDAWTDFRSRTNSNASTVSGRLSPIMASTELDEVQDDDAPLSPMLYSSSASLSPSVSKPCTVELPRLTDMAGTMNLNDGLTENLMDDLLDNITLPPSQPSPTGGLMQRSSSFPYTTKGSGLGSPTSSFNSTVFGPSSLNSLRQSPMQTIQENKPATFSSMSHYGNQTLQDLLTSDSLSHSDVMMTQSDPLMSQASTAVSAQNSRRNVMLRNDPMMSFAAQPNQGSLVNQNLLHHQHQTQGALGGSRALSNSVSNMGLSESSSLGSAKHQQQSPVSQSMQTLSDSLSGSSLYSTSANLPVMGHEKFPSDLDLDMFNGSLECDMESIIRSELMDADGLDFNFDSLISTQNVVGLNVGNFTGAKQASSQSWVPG
UniProt P61289: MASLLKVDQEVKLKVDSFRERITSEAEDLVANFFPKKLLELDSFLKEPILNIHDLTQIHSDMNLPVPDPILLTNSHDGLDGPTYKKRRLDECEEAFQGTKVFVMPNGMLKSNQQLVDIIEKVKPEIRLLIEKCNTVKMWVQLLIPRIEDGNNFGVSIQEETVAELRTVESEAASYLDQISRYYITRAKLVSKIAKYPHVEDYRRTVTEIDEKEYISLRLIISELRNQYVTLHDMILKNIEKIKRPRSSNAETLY

Results are given in words; binding and its absence hold for the method and conditions named. Binding seen in cells or lysates may run through a third protein. Some results given as binding are weak or reduced against the parent protein; the word gives no strength.

The target in assay [1] is endogenous PP2Acα (human (endogenous in AC16)) (UniProt P67775). Description: co-IP; endogenous proteins in AC16 cell lysates; reciprocal immunoprecipitation with an antibody against one partner (IgG control in Fig. 4g, h), co-precipitated partner detected by immunoblotting. On the technique in general: In western blotting, separated proteins are transferred to a membrane and probed.

In assay [2] the target is Flag-PP2Acα (UniProt P67775). Description: co-IP; 293T cells transiently transfected with a Flag-tagged and an HA-tagged protein (or Flag vector control); immunoprecipitation with FLAG-M2 agarose beads, immunoblotting.
The target of assay [3] is endogenous FoxO3a (human (endogenous in AC16)) (UniProt O43524). Nature of the assay: co-IP; endogenous proteins in AC16 cell lysates; reciprocal immunoprecipitation with an antibody against one partner (IgG control in Fig. 4g, h), co-precipitated partner detected by immunoblotting.
The target in assay [4] is endogenous REGγ (human (endogenous in AC16)) (UniProt P61289). Described as above.
Assay [5] has as its target Flag-REGγ (UniProt P61289). Nature of the assay: co-IP; 293T cells transiently transfected with a Flag-tagged and an HA-tagged protein (or Flag vector control); immunoprecipitation with FLAG-M2 agarose beads, immunoblotting.

For “endogenous FoxO3a (from UniProt O43524 1-673)”, in assay [1], the binding entry is reported as “binds”.

On to HA-REGγ (from UniProt P61289 1-254), for which the binding entry in assay [2] was “binds”.

As to “endogenous PP2Acα (from UniProt P67775 1-309)”, the binding result in assay [3] and in assay [4] was “binds” each time.

On to “endogenous REGγ (from UniProt P61289 1-254)”, for which the binding result in assay [1] is “binds”.

For HA-PP2Acα (from UniProt P67775 1-309), the binding result in assay [5] was “binds”.
